From paper doi:10.1101/2023.10.23.563604
Results are given in words; binding and its absence hold for the method and conditions named. Some entries that bind do so weakly or less than the wild type. Sequences can lack the tags named with a protein.

The chains behind the UniProt entries cited, without tags or fusion partners.
UniProt Q12522: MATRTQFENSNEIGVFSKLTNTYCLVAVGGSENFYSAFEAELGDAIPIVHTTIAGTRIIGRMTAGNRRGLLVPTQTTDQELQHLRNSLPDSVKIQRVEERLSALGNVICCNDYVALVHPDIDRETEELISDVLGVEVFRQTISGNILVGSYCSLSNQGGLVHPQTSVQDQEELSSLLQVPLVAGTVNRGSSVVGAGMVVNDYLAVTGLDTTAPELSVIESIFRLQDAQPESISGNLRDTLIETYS

Target: T1, Reh1-3xFLAG (S. cerevisiae) (UniProt Q06709)
T1 sequence: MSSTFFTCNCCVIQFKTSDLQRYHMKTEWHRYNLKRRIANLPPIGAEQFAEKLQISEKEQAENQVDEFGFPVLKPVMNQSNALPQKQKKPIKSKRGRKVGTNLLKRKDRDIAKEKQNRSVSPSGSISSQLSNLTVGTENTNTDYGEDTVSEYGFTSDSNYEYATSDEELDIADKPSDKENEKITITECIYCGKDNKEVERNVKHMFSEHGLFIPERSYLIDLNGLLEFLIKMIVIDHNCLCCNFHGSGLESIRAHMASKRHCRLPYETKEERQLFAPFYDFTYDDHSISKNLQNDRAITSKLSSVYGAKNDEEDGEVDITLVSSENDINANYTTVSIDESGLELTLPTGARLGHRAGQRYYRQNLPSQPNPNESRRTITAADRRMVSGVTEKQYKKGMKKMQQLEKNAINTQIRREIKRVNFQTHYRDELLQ
Test: cryo-EM structure

Tif6 (from UniProt Q12522 1-245)
binding: binds

B1: Nmd3 (protein, UniProt P38861 1-518)
chain: MEFTPIDPHQHQNAATLLCCNCGTPIDGSTGLVMCYDCIKLTVDITQGIPREANISFCRNCERFLQPPGQWIRAELESRELLAICLRRLKGLTKVRLVDASFIWTEPHSRRIRIKLTVQGEAMTNTIIQQTFEVEYIVIAMQCPDCARSYTTNTWRATVQIRQKVPHKRTFLFLEQLILKHNAHVDTISISEAKDGLDFFYAQKNHAVKMIDFLNAVVPIKHKKSEELISQDTHTGASTYKFSYSVEIVPICKDDLVVLPKKLAKSMGNISQFVLCSKISNTVQFMDPTTLQTADLSPSVYWRAPFNALADVTQLVEFIVLDVDSTGISRGNRVLADITVARTSDLGVNDQVYYVRSHLGGICHAGDSVMGYFIANSNYNSDLFDGLNIDYVPDVVLVKKLYQRKSKKSRHWKLKRMAKEHKDIDASLDYNSRAQKQEMERAEKDYELFLQELEEDAELRQSVNLYKNREANVPPEEHEMDEDEDEDAPQINIDELLDELDEMTLEDGVENTPVESQQ
binding: binds
